Results: the supplement of paper PMC10849652
The list shows a part of the results.

By UniProt entry, the sequences of proteins in these tests, tags left out. Where a name states a change or a piece, a line headed by the entry shows the natural chain unless it says otherwise.
UniProt Q9NUQ7: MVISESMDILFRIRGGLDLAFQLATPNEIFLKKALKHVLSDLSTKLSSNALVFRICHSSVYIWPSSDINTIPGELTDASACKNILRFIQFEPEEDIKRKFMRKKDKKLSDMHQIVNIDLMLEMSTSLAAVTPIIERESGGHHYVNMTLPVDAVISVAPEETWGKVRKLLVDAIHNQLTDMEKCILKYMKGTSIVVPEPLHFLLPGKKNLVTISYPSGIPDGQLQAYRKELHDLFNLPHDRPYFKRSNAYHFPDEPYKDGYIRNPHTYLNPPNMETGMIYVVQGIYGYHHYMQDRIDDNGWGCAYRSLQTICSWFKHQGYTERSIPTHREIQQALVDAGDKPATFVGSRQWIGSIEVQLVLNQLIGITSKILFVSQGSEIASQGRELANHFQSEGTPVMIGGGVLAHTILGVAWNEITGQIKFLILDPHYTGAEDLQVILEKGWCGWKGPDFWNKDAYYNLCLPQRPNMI
UniProt O14949: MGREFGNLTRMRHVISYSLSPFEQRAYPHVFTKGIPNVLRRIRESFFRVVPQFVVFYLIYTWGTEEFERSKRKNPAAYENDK
UniProt Q9UHD9, whole entry, looked up: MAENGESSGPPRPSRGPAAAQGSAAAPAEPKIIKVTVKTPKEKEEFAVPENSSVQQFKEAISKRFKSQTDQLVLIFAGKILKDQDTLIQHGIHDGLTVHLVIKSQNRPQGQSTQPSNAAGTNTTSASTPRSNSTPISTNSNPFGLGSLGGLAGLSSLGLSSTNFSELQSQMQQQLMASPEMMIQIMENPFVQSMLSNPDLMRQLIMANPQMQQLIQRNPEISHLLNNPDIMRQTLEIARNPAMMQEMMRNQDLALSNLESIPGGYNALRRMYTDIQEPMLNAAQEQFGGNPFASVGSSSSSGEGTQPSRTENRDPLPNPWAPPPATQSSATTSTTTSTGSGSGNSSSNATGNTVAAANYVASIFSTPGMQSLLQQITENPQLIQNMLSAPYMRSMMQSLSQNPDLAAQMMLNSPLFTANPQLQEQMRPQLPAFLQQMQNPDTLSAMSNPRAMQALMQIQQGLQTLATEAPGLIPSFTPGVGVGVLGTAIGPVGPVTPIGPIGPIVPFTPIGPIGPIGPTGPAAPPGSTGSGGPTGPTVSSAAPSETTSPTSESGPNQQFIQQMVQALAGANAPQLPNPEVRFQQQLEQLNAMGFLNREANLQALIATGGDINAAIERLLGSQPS
UniProt P22695: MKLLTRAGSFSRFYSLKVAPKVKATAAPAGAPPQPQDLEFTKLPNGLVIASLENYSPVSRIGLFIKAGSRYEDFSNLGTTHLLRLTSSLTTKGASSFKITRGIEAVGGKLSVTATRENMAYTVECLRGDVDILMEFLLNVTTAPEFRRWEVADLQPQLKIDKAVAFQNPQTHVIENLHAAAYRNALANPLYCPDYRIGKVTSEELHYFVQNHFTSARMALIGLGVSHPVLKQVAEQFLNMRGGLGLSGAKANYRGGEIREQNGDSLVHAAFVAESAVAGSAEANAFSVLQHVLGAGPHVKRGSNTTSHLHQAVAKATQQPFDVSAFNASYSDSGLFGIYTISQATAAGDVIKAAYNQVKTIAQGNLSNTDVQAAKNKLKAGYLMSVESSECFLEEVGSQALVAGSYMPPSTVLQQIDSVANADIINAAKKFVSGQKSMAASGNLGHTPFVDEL
UniProt Q9H347: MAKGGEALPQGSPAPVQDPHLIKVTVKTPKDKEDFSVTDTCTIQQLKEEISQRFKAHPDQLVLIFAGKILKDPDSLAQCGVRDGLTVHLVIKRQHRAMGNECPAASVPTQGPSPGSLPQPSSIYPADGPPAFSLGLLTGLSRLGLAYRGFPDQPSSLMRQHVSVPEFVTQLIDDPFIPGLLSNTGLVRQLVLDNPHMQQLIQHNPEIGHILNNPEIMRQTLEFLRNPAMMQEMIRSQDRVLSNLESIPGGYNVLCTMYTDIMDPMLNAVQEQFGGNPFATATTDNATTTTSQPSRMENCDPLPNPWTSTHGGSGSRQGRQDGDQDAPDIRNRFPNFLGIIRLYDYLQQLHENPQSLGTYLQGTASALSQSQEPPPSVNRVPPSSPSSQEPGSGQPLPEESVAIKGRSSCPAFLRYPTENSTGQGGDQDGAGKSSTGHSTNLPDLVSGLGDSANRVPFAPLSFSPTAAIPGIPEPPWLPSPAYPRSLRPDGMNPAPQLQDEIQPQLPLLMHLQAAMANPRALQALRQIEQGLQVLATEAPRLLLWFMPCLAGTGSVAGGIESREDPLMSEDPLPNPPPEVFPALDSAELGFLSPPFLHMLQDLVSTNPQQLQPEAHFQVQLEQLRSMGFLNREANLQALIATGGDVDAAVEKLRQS
UniProt P15374: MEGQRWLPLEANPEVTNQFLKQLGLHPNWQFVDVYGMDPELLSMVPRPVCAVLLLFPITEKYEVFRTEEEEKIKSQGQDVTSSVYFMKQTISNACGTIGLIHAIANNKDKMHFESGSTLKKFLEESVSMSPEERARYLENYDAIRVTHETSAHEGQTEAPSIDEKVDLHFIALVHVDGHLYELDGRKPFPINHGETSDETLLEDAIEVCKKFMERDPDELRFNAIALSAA
UniProt P61758, whole entry, looked up: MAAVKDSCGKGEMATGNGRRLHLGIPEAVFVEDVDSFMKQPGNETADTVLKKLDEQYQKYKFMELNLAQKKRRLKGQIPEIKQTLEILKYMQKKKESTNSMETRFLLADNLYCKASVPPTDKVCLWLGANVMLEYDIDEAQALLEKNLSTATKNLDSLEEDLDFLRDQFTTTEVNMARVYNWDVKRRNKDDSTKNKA
UniProt Q92900: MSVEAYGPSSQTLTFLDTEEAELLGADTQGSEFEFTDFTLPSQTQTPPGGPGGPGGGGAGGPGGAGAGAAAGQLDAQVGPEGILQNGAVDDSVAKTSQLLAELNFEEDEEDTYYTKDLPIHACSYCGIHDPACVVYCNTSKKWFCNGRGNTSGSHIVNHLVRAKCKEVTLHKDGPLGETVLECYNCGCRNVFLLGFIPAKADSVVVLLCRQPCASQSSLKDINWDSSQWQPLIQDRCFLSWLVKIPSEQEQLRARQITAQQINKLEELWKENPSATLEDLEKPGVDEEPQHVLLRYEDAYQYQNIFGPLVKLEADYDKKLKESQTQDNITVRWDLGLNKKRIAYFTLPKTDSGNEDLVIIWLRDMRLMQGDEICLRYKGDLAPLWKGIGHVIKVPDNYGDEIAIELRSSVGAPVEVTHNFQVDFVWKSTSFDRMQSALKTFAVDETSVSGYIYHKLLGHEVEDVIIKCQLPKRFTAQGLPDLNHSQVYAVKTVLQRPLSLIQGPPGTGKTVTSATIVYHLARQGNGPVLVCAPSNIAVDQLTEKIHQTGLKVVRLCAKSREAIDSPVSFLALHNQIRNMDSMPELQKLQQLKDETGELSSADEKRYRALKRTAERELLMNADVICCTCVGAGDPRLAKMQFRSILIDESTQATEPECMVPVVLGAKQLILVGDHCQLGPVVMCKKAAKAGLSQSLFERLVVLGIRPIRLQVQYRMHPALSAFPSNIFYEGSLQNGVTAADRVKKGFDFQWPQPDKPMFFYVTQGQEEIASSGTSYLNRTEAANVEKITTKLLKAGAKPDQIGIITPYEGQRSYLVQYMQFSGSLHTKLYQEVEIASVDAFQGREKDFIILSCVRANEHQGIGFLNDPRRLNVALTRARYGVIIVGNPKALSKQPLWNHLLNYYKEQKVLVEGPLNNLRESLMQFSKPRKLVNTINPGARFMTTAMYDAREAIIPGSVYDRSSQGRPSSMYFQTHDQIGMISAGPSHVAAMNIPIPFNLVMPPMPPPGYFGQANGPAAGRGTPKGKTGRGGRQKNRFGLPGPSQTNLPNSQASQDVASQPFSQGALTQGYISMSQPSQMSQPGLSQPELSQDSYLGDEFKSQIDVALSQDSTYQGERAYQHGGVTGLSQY
UniProt Q16880: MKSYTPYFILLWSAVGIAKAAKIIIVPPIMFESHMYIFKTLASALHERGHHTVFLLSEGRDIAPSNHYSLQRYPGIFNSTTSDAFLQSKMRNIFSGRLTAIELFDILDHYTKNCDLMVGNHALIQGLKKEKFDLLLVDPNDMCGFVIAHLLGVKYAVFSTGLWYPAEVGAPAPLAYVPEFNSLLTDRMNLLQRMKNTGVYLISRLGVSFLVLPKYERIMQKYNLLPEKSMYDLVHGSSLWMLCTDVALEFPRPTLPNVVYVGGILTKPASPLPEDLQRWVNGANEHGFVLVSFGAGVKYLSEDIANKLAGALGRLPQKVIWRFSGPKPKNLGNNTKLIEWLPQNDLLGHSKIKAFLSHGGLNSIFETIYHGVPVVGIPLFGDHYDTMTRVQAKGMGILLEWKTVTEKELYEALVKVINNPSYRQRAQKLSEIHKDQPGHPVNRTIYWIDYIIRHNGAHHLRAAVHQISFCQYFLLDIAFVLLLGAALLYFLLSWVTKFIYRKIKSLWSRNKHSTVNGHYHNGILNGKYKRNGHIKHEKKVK
UniProt P63027, whole entry, looked up: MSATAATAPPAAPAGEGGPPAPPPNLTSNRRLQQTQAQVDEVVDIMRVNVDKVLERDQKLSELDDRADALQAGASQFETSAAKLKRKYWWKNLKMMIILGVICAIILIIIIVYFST
UniProt Q8NBZ7: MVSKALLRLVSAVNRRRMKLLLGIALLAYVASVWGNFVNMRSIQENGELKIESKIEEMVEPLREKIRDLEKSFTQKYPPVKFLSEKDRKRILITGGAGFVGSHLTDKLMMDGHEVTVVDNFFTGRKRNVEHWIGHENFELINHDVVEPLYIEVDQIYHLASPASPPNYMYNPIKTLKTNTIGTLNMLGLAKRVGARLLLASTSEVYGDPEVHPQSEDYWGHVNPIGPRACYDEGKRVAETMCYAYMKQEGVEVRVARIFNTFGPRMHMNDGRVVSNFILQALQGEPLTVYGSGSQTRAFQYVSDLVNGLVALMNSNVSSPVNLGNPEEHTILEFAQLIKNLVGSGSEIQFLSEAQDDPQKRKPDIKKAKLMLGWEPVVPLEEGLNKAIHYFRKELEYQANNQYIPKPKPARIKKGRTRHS
UniProt Q8TED0: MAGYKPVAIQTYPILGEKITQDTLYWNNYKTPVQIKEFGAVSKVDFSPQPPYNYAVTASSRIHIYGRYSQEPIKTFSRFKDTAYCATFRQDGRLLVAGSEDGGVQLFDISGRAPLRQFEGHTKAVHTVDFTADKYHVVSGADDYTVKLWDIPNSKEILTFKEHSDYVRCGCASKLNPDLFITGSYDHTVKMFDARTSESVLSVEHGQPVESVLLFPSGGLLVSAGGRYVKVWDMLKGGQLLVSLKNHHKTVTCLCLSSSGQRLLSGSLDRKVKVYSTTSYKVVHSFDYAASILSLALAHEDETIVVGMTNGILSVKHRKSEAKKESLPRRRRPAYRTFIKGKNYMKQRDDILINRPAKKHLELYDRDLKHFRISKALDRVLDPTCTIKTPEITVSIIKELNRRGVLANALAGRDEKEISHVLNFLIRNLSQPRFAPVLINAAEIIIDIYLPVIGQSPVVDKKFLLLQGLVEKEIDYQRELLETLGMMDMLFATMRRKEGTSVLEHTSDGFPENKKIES
UniProt Q93009, whole entry, looked up: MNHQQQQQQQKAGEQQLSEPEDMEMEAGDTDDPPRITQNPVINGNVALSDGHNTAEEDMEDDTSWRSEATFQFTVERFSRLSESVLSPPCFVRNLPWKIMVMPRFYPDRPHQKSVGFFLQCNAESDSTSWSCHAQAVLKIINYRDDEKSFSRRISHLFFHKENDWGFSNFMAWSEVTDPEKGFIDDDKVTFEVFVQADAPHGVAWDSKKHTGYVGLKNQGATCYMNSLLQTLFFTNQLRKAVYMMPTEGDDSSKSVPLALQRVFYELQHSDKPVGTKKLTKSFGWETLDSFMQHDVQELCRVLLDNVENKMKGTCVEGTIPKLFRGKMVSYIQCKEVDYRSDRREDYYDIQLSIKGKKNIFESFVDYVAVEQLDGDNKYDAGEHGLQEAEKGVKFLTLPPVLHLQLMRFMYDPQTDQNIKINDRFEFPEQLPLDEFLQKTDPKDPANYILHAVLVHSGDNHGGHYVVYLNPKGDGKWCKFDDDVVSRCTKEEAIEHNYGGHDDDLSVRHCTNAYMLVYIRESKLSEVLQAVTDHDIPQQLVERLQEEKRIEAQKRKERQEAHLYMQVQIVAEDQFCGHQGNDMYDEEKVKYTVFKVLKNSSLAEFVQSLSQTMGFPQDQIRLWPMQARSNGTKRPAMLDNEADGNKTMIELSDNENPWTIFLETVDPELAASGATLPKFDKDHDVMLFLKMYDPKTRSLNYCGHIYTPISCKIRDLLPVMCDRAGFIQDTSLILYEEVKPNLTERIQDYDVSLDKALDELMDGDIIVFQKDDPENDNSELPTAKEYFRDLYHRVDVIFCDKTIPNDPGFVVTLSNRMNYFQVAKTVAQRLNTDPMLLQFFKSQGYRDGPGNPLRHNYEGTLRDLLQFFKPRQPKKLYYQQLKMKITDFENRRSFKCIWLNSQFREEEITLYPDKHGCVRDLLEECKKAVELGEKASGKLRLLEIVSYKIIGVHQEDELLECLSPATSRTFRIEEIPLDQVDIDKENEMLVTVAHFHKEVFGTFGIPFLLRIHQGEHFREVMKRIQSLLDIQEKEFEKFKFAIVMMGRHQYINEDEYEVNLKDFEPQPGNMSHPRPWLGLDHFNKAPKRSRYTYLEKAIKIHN

compound: CN1CC[C@H](c2c(O)cc(O)c3c(=O)cc(-c4ccccc4Cl)oc23)[C@H](O)C1 [alvocidib]; experiment: log2 fold change, soluble protein after heating vs DMSO (PISA); higher = thermal stabilisation; K562 cells, 10 uM, 30 min; active = over 0.2 and 3.5 SD of the protein, either way, in both replicates (recomputed)
In short: (§1)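 K562 cells at 2×10^6 cells/mL were given 10 μM compound for 30 min. Aliquots then went through 3 min of heating across 48°C-58°C, were pooled, and were extracted in PBS with 0.5% NP-40 at 4°C, and the supernatant after 21,000xg for 90 min was quantified by TMTpro 16plex LC-MS/MS with channel sums equalised. Thermal stability relative to control samples, from duplicates, is given as log2 fold change.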

log2 fold change, inactive:
UFSP2 (UniProt Q9NUQ7) -0.056
UQCRQ (UniProt O14949) 0.023
UBQLN2 (UniProt Q9UHD9) -0.033
UQCRC2 (UniProt P22695) -0.038
UNC93B1 (UniProt Q9H1C4) 0.057
UBQLN3 (UniProt Q9H347) -0.051
UCHL3 (UniProt P15374) -0.13
VBP1 (UniProt P61758) 0.015
UPF1 (UniProt Q92900) 0.051

compound: CN1CCc2c(c3ccccc3n2Cc2ccc(C(=O)NO)cc2)C1 [Tubastatin A]; experiment: as above
In short: as §1

log2 fold change, inactive:
UMPS (UniProt P11172) -0.017
USP9X (UniProt Q93008) -0.014
UBXN7 (UniProt O94888) 0.006
USP6NL isoform 2 (UniProt Q92738) -0.046
UBQLN1 (UniProt Q9UMX0) 0.006
USP22 (UniProt Q9UPT9) 0.028
UGT8 (UniProt Q16880) 0.065
VAMP2 (UniProt P63027) 0.093
UXS1 isoform 2 (UniProt Q8NBZ7) 0.066
VCP (UniProt P55072) -0.041
USP19 isoform 6 (UniProt O94966) 0.029
UTP15 (UniProt Q8TED0) 0.046
UBL4A (UniProt P11441) 0.016
UBE3C (UniProt Q15386) 0.153
VAMP4 (UniProt O75379) 0.036
UQCC1 (UniProt Q9NVA1) -0.024
UCKL1 (UniProt Q9NWZ5) -0.021
UQCRB (UniProt P14927) -0.013
VARS (UniProt P26640) 0.006
UBL5 (UniProt Q9BZL1) -0.01
USP30 (UniProt Q70CQ3) 0.053
UPF3B (UniProt Q9BZI7) 0.114
VAMP7 (UniProt P51809) -0.001
UVRAG (UniProt Q9P2Y5) 0.02
UFSP2 (UniProt Q9NUQ7) -0.009
UQCRQ (UniProt O14949) -0.052
USP15 (UniProt Q9Y4E8) 0.014
UBQLN2 (UniProt Q9UHD9) 0.041
UGDH (UniProt O60701) 0.004
UQCRC2 (UniProt P22695) -0.015
USP7 (UniProt Q93009) 0.023
UBQLN3 (UniProt Q9H347) 0
UCHL3 (UniProt P15374) -0.017
VBP1 (UniProt P61758) -0.028
UPF1 (UniProt Q92900) 0.002
UBLCP1 (UniProt Q8WVY7) 0.147
UXT isoform 2 (UniProt Q9UBK9) 0.077

compound: CNC(=O)C1=CC=CC=C1NC2=NC(=NC=C2Cl)NC3=C(C=C(C=C3)N4CCOCC4)OC; experiment: as above
In short: as §1

log2 fold change, inactive:
UMPS (UniProt P11172) -0.008
USP9X (UniProt Q93008) -0.022
UBXN7 (UniProt O94888) -0.019
USP6NL isoform 2 (UniProt Q92738) -0.074
UBQLN1 (UniProt Q9UMX0) -0.065
USP22 (UniProt Q9UPT9) -0.027
UGT8 (UniProt Q16880) 0.183
VAMP2 (UniProt P63027) 0.018
UXS1 isoform 2 (UniProt Q8NBZ7) -0.013
VCP (UniProt P55072) -0.008
USP19 isoform 6 (UniProt O94966) 0.011
UTP15 (UniProt Q8TED0) 0.038
UBL4A (UniProt P11441) 0.014
UBE3C (UniProt Q15386) -0.022
VAMP4 (UniProt O75379) -0.02
UQCC1 (UniProt Q9NVA1) 0.011
UCKL1 (UniProt Q9NWZ5) 0.084
UQCRB (UniProt P14927) -0.029
VARS (UniProt P26640) 0.043
UBL5 (UniProt Q9BZL1) 0.032
USP20 (UniProt Q9Y2K6) -0.051
USP30 (UniProt Q70CQ3) 0.109
UPRT (UniProt Q96BW1) -0.015
UPF3B (UniProt Q9BZI7) 0.045
VAMP7 (UniProt P51809) 0.03
UVRAG (UniProt Q9P2Y5) -0.053
UFSP2 (UniProt Q9NUQ7) 0.021
UQCRQ (UniProt O14949) -0.016
USP15 (UniProt Q9Y4E8) 0.049
UBQLN2 (UniProt Q9UHD9) -0.042
UGDH (UniProt O60701) -0.085
UQCRC2 (UniProt P22695) -0.023
UNC93B1 (UniProt Q9H1C4) 0.115
USP7 (UniProt Q93009) -0.106
UBQLN3 (UniProt Q9H347) -0.059
UCHL3 (UniProt P15374) 0.022
VBP1 (UniProt P61758) -0.019
UPF1 (UniProt Q92900) 0.014
UBLCP1 (UniProt Q8WVY7) 0.027
UXT isoform 2 (UniProt Q9UBK9) -0.191
